Measured values: patent US20190275087A1, “EXPANSION AND DIFFERENTIATION OF STEM CELLS” (Allergan Pharmaceuticals International Limited, priority 2018, published 2019)
Results are given in words; binding and its absence hold for the method and conditions named. Some results given as binding are weak or reduced against the parent protein; the word gives no strength.

Chains of the proteins cited; added tags and fusions are not shown. Lines headed by an entry give the natural chain unless they say otherwise; changes in a name come on top. A line that says so, or that is headed by a name, gives the form on record, which may keep a tag or linker.
UniProt P06756: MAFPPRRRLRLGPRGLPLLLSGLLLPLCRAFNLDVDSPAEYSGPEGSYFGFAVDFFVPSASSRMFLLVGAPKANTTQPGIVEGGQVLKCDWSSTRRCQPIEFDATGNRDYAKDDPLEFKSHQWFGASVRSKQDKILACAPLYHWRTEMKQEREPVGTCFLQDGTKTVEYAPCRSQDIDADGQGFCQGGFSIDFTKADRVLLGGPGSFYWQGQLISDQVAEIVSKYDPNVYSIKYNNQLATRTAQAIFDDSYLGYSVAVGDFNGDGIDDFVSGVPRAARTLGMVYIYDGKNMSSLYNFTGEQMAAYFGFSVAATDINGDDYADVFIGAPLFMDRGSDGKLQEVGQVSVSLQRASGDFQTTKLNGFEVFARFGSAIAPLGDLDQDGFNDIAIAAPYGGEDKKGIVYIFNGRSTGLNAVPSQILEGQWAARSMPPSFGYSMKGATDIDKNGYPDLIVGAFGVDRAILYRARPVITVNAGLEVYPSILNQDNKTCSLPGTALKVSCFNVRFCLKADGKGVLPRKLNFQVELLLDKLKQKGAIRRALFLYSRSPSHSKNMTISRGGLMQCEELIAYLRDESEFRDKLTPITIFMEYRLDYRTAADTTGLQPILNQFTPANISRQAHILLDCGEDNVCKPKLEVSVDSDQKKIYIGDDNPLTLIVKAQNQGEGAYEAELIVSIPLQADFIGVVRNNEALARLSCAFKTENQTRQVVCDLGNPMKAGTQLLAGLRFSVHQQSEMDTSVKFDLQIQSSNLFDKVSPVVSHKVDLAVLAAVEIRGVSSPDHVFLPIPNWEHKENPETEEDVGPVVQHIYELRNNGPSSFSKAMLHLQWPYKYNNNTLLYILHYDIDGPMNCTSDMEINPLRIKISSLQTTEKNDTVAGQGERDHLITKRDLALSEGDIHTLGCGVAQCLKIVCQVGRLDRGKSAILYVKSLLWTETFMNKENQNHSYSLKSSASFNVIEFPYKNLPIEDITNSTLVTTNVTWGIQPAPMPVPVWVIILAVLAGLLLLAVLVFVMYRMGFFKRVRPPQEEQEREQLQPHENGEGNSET
UniProt P05106: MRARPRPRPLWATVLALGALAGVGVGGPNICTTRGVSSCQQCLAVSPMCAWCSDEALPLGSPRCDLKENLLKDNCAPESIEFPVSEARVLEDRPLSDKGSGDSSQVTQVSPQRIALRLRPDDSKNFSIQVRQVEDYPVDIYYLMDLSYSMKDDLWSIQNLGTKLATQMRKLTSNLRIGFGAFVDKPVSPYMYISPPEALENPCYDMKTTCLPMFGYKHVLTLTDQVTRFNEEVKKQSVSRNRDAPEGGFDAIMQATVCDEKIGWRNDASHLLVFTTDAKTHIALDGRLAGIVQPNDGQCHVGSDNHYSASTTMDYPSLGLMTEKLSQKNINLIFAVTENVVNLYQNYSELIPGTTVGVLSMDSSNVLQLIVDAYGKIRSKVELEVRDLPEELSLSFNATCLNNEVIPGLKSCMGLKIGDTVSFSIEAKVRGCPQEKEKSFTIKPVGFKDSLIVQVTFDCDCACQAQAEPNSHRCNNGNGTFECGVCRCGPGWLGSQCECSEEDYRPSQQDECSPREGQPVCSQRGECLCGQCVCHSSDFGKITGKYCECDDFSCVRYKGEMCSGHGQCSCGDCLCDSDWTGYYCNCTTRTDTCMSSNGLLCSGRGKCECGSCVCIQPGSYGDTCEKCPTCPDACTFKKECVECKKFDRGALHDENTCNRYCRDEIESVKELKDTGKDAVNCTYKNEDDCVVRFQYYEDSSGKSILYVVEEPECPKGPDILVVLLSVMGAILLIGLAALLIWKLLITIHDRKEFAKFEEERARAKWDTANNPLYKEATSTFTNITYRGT
UniProt P18084: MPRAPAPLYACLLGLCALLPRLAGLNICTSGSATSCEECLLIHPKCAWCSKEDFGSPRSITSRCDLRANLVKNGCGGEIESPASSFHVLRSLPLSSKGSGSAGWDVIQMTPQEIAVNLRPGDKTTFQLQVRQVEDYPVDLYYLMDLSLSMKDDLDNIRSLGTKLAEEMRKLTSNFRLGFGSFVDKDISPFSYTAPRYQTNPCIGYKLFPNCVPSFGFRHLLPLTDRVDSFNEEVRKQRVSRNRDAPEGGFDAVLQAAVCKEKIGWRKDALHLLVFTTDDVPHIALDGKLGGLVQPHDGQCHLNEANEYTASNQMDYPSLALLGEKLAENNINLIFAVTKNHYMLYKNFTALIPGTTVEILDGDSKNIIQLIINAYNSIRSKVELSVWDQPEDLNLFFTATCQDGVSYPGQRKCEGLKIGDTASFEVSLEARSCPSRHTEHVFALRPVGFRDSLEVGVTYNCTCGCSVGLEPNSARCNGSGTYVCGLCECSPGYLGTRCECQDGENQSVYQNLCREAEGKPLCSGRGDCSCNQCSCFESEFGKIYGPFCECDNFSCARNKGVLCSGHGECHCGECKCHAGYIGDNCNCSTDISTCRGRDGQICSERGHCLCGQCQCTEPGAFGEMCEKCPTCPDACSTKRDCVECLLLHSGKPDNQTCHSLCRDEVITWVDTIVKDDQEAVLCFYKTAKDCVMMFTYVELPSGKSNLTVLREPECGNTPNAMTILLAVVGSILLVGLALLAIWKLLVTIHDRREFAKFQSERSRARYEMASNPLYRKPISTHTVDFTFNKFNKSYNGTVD
recombinant human tropoelastin (Elastagen) (P15502, form named): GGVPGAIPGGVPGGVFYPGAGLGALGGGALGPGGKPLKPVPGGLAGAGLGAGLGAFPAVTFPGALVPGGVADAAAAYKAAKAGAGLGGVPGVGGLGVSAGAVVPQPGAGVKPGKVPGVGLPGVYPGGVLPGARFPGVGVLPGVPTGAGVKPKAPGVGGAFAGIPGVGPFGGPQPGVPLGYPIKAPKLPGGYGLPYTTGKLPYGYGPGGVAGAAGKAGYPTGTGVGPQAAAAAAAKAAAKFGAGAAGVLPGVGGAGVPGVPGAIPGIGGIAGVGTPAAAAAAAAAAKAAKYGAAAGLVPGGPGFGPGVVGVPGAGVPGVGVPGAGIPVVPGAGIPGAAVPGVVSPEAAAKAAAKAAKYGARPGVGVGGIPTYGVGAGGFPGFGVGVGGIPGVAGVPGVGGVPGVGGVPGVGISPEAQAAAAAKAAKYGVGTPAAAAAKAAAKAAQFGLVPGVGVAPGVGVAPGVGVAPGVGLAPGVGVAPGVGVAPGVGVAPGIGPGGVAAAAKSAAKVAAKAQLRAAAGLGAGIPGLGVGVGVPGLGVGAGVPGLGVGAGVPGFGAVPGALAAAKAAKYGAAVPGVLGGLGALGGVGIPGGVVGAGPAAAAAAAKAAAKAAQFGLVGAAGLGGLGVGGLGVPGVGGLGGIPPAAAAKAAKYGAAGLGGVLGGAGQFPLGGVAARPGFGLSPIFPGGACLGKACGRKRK

How the values were obtained:
[1] = target: integrin αvβ3 on human bone marrow-derived MSCs (human) (UniProt P06756+P05106); assay: inferred from antibody blocking of MSC spreading, proliferation and migration
[2] = target: integrin αvβ5 on human bone marrow-derived MSCs (human) (UniProt P06756+P18084); assay: as above

binding [1]: binds | binding [2]: binds
Substance: recombinant human tropoelastin (Elastagen) (from UniProt P15502 27-724) (ligand)
